Laboratory results published in US20230416326A1.
Results are given in words; binding and its absence hold for the method and conditions named. For some of these results: In cells and extracts the contact can be indirect. Some results given as binding are weak or reduced against the parent protein; the word gives no strength.

Protein sequences, listed by entry. Tags and fused reporters are not part of them. Lines headed by an entry give the natural chain unless they say otherwise; changes in a name come on top.
UniProt Q13261: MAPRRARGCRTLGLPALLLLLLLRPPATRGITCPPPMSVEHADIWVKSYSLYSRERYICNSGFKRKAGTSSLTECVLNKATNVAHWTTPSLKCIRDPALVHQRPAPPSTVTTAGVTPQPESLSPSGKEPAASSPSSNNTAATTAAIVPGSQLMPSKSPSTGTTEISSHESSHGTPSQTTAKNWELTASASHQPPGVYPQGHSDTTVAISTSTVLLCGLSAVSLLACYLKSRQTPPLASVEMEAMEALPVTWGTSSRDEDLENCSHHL

Tests used:
[1] = target: IL-15Rα-his (Homo sapiens (Human)) (UniProt Q13261); experiment: BLI (Octet RED96), receptor immobilised on sensor
Sushi-mIgG2aa.1Fc = experiment: co-expression in HEK293, Protein A purification, SEC-HPLC single peak, LC-MS shows both components
Sushi-hIgG4Fc = experiment: as above
Sushi-hIgG1Fc = experiment: as above

Measured: binding

B1: IL-2/15 chimera 1 (ligand)
chain: APTSSSTKKTQLQLEHLLLDLQMILNGIQSMHIDATLYTESDVHPSCKVTAMKCFLLELQVISLESGDASIHDTVENLIILANNSLSSNGNVTESGCKECEELEEKNIVEFLNRFITFAQSIISTLT
binds: all assays above
